Results are given in words; binding and its absence hold for the method and conditions named. Some binding calls cover weakened binding; strength is not graded here.
T1: recombinant human NOTCH1 protein (human, UniProt P46531 1426-1731, limits assumed)
T1 construct: NOTCH1 proteins'
T1 sequence (looked up): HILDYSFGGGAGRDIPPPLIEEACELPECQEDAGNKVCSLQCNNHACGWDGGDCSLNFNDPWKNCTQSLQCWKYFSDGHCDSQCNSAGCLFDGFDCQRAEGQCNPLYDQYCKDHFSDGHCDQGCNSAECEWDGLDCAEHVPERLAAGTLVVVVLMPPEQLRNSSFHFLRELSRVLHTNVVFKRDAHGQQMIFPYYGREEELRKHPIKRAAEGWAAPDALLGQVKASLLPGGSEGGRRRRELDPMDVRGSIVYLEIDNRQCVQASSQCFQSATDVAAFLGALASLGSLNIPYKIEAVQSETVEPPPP

B1: 52M51-H4 humanized heavy chain co-expressed with the murine 52M51 light chain (antibody, human IgG2, V domains shown)
VH: QVQLVQSGAEVKKPGASVKISCKVSGYTLRGYWIEWVRQAPGKGLEWIGQILPGTGRTNYNEKFKGRVTMTADTSTDTAYMELSSLRSEDTAVYYCARFDGNYGYYAMDYWGQGTTVTVSS
VL: QAVVTQESALTTSPGETVTLTCRSSTGAVTTSNYANWVQEKPDHLFTGLIGGTNNRAPGVPARFSGSLIGDKAALTITGAQTEDEAIYFCALWYSNHWVFGGGTKLTVLG
B2: humanized antibody 52M51-H4L3 (antibody, human IgG2, lambda, V domains shown)
VH: B1 VH
VL: SQAVVTQEPSLTVSPGGTVTLTCRSSTGAVTTSNYANWFQQKPGQAPRTLIGGTNNRAPGVPARFSGSLLGGKAALTLSGAQPEDEAEYYCALWYSNHWVFGGGTKLTVLG
notes: Human IgG2 heavy chain and lambda (IgLC1) light chain; also called OMP-52M51; ATCC PTA-9549
B3: humanized antibody 52M51-H4L4 (antibody, human IgG2, lambda, V domains shown)
VH: B1 VH
VL: SQTVVTQEPSFSVSPGGTVTLTCRSSTGAVTTSNYANWYQQTPGQAPRTLIGGTNNRAPGVPDRFSGSILGNKAALTITGAQADDESDYYCALWYSNHWVFGGGTKLTVLG
notes: Human IgG2 heavy chain and lambda (IgLC1) light chain

Assays:
[1] = molecular target: T1, recombinant human NOTCH1 protein; assay: ELISA of conditioned medium from HEK 293 cells co-transfected with H4 heavy chain and murine 52M51 light chain
[2] = molecular target: T1, recombinant human NOTCH1 protein; assay: ELISA of conditioned medium from HEK293 cells co-transfected with 52M51-H4 and the light chain variant

Binder | binding [1] | binding [2]
B1 | binds | 
B2 |  | binds
B3 |  | binds
